These are yes or no findings as the source states them, for the method shown. Some entries that bind do so weakly or less than the wild type.
Columns and labels:
[1] = molecular target: recombinant human TLR4/MD-2 complex (R&D Systems cat. no. 3146-TN/CF) (human) (UniProt O00206); assay: SPR, S100A9 over amine-coupled TLR4/MD-2
[2] = molecular target: recombinant human TLR4/MD-2 complex (R&D Systems cat. no. 3146-TN/CF) (human) (UniProt O00206); assay: SPR, 100 and 200 nM S100A9 over amine-coupled TLR4/MD-2, 1 mM CaCl2 and 10 µM ZnCl2
[3] = molecular target: recombinant human TLR4/MD-2 complex (R&D Systems cat. no. 3146-TN/CF) (human) (UniProt O00206); assay: SPR (Biacore), 100 and 200 nM S100A9 over amine-coupled human TLR4/MD-2, HBS-P with 1 mM CaCl2 and 10 µM ZnCl2, regeneration with 3 mM EDTA

Protein sequences, listed by entry. Tags and fused reporters are not part of them. Lines headed by an entry give the natural chain unless they say otherwise; changes in a name come on top.
UniProt O00206: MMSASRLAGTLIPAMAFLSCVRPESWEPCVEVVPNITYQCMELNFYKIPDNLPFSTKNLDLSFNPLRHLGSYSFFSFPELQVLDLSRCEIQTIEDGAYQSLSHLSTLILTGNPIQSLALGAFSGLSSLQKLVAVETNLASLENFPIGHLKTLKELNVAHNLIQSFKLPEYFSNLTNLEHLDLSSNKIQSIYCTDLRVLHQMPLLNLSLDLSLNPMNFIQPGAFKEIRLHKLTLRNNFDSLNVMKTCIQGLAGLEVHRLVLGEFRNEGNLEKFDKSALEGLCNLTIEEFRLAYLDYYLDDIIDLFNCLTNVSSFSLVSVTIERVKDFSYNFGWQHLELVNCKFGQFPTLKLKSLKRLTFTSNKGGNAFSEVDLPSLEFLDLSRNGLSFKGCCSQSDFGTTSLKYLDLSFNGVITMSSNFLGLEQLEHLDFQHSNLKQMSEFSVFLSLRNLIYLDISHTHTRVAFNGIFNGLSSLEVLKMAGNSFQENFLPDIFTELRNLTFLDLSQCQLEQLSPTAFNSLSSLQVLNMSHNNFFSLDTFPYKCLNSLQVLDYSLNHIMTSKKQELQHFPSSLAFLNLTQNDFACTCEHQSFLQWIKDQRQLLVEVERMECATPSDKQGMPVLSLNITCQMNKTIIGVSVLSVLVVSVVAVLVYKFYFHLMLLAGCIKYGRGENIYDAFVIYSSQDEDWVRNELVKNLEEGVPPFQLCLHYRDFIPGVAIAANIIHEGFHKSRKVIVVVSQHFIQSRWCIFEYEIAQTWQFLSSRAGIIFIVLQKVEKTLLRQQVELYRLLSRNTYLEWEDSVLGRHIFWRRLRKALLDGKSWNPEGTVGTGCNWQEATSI

Measured: binding

B1: recombinant human S100A9 (ligand)
chain: MTCKMSQLERNIETIINTFHQYSVKLGHPDTLNQGEFKELVRKDLQNFLKKENKNEKVIEHIMEDLDTNADKQLSFEEFIMLMARLTWASHEKMHEGDEGPGHHHKPGLGEGTP
binds: all assays above

— US20100166775A1
